Some of the results follow.

Protein sequences, listed by entry. Tags and fused reporters are not part of them. Lines headed by an entry give the natural chain unless they say otherwise; changes in a name come on top.
UniProt Q9NPB0: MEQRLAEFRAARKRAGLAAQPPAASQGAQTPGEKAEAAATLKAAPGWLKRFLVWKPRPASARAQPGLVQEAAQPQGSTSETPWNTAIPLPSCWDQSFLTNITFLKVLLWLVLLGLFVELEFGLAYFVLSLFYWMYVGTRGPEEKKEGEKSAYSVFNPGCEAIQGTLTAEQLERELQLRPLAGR
UniProt O75056, whole entry, looked up: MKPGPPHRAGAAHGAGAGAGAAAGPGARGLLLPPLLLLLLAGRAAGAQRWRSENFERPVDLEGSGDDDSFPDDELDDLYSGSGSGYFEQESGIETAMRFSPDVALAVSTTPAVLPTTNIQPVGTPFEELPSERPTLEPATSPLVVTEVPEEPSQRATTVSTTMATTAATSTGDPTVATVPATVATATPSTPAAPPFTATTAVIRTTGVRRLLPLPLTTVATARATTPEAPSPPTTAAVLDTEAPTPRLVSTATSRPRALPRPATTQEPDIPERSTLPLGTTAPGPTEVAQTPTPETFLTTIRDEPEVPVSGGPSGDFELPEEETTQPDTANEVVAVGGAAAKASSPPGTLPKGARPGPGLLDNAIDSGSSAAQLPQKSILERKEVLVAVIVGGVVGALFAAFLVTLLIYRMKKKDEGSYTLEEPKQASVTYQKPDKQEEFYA
UniProt Q92503: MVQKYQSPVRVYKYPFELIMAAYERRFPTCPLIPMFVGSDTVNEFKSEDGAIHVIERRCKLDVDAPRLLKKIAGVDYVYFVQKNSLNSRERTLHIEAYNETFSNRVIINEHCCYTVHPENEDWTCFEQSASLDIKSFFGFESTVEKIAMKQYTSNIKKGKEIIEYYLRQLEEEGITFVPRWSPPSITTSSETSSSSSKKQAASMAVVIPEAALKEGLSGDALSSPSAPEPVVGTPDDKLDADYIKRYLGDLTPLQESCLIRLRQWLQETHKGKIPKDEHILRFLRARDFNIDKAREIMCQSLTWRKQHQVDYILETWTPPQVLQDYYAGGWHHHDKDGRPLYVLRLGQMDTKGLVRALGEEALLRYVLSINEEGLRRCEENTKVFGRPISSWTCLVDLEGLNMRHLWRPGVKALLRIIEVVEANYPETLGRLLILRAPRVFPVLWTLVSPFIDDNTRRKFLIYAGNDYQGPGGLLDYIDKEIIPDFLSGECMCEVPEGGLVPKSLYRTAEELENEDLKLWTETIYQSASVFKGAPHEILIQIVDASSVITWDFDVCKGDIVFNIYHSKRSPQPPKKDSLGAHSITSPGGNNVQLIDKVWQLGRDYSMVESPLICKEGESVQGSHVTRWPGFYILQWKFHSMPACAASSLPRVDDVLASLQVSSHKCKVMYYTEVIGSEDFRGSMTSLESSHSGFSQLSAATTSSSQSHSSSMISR
UniProt O95486: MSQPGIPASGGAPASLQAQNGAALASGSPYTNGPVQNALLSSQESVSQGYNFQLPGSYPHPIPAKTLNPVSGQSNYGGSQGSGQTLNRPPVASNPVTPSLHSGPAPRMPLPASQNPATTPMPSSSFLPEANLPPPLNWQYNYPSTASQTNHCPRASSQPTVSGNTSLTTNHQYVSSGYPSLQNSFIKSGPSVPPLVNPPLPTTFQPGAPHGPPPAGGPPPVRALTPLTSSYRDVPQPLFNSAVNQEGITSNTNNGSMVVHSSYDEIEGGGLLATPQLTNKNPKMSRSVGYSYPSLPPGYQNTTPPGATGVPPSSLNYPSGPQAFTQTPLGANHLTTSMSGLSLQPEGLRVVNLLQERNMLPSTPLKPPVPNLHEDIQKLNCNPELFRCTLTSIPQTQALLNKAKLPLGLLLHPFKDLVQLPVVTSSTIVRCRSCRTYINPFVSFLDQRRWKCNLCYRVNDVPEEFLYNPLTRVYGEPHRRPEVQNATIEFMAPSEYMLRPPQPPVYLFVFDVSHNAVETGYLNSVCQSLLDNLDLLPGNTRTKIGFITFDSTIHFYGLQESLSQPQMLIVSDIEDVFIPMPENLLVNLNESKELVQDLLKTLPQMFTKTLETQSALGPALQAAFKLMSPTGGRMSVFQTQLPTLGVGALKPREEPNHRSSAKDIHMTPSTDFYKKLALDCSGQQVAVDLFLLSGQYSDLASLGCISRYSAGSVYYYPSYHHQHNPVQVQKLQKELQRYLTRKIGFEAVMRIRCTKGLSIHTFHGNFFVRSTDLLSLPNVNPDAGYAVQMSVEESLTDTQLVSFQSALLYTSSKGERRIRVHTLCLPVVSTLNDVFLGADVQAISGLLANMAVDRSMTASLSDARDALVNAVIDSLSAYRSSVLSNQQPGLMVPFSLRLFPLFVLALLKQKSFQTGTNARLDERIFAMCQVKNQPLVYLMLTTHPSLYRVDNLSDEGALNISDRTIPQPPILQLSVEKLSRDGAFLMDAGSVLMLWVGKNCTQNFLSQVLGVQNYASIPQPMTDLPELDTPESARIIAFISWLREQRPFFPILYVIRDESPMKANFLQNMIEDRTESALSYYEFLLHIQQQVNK
UniProt Q9NQC3: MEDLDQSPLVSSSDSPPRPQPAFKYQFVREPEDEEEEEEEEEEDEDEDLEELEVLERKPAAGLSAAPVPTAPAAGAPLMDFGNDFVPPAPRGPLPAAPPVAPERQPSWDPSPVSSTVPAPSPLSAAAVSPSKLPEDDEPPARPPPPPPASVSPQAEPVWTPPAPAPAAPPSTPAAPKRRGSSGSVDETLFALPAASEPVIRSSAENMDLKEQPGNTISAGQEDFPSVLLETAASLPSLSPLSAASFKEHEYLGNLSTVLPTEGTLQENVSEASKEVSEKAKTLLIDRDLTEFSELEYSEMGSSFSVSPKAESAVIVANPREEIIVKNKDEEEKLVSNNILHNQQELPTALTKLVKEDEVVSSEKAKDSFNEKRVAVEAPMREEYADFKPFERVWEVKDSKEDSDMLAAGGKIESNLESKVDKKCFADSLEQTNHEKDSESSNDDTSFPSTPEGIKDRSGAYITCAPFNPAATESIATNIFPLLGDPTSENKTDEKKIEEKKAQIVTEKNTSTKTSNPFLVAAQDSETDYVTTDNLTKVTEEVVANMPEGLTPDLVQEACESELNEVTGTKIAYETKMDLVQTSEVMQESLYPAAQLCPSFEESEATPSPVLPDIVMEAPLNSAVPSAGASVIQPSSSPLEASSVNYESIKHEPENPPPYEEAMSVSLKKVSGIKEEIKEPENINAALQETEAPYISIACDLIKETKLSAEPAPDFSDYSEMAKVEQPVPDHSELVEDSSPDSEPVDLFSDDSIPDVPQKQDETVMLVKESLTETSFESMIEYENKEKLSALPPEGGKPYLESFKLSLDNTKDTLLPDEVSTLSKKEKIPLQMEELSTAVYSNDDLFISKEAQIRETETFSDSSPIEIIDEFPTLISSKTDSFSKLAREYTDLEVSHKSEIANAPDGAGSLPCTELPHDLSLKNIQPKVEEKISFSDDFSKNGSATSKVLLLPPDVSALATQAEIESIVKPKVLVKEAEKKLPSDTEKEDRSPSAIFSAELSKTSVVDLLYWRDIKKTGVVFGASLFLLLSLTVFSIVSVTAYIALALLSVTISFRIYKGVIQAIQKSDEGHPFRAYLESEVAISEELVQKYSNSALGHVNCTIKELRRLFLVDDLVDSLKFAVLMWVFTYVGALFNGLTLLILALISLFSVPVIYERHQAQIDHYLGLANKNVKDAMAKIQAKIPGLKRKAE
UniProt Q7L3V2: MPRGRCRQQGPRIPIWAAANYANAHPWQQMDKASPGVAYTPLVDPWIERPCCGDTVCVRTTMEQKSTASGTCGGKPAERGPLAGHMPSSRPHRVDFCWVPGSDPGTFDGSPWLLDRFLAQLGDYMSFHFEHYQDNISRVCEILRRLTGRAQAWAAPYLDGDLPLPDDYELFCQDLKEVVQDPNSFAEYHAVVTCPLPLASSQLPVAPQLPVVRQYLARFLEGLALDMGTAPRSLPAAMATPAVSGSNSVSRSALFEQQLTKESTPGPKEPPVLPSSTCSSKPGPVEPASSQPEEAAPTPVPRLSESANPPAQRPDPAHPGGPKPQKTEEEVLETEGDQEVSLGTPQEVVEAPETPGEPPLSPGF
UniProt Q7L099: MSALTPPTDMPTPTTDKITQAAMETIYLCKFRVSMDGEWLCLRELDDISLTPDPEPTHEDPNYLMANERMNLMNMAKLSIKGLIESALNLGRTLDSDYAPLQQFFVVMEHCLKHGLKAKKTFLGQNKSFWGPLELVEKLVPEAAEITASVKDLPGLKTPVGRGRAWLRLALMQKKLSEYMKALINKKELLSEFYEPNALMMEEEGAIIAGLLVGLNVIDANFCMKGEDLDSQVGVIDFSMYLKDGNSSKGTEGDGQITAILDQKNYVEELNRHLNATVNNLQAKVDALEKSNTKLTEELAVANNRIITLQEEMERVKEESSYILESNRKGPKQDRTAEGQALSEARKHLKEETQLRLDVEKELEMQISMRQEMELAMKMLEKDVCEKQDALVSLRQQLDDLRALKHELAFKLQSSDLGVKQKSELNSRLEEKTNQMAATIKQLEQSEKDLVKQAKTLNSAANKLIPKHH
UniProt O75446: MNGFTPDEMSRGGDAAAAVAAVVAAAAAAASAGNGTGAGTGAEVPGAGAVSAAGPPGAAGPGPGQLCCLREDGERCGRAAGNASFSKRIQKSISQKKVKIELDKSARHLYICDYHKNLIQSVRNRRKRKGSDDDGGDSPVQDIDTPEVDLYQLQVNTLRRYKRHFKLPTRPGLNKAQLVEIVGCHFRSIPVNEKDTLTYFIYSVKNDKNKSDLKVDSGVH
UniProt Q99643: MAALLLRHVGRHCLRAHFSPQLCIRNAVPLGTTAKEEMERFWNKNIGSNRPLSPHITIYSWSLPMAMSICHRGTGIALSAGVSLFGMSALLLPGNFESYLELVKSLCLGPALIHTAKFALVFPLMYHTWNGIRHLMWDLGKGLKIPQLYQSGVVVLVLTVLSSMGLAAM
UniProt Q15436: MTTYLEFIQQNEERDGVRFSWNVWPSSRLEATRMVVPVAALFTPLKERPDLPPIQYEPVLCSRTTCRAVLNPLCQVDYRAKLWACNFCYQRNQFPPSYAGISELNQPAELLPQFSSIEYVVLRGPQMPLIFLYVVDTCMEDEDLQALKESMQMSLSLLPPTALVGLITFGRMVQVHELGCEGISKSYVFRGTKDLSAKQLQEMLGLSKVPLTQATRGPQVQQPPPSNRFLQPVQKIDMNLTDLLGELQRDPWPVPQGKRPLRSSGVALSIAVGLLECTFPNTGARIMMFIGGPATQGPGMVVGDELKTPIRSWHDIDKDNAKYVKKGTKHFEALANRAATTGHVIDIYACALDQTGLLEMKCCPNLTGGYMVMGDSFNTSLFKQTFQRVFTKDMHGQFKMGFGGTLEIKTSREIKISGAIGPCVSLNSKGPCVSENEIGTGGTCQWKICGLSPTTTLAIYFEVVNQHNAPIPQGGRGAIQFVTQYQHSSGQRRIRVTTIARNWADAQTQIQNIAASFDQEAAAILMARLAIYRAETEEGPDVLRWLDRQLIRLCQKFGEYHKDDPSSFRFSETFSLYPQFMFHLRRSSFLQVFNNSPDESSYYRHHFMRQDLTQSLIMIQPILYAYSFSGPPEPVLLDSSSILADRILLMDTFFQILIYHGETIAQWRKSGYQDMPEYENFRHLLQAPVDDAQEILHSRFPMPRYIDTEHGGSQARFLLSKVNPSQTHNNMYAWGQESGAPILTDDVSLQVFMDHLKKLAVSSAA
UniProt Q13296: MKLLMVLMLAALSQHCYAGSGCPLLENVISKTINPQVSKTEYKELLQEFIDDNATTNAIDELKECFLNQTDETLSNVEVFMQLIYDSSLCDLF
UniProt O00560: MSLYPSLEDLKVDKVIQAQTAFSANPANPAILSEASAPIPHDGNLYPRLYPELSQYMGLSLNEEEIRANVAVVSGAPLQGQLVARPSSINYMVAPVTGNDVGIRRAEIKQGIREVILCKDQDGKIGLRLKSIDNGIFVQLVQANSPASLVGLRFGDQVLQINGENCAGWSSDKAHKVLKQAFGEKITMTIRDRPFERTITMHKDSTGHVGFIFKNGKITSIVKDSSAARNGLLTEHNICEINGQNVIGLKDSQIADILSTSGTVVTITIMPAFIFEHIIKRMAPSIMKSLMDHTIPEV
UniProt Q9H4B6: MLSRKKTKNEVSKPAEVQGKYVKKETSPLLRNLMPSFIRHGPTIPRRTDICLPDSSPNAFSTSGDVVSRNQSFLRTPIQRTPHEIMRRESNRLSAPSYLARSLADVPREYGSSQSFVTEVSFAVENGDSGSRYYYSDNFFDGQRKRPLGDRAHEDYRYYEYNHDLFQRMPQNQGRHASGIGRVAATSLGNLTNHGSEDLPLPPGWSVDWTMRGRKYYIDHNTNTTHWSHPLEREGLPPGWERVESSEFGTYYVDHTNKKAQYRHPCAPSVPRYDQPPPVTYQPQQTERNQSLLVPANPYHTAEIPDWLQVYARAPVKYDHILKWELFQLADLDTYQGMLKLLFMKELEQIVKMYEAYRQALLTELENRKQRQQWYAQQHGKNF
UniProt Q99470: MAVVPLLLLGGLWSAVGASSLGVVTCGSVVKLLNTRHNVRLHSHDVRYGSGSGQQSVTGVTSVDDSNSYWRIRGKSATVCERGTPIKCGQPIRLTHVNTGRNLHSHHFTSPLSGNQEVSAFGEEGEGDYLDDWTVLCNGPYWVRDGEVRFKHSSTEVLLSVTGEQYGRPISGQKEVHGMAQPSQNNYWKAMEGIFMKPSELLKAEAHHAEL

Compound in one experiment: CC1=C(SC2=C1C(=N[C@H](C3=NN=C(N32)C)CC(=O)N)C4=CC=C(C=C4)Cl)C
Put plainly: log2 fold change, soluble protein after heating vs DMSO (PISA); higher = thermal stabilisation; K562 cells, 10 uM, 30 min; active = over 0.2 and 3.5 SD of the protein, either way, in both replicates (recomputed). The procedure, abridged:
(§1)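 Thermal stability values are relative to control samples and come from duplicates. They are expressed as log2 fold changes. For measurement, K562 cells (2×10^6 cells/mL) received 10 μM compound for 30 min, and aliquots were heated for 3 min over 48°C-58°C, pooled, and extracted at 4°C in PBS with 0.5% NP-40. Soluble protein, the supernatant after 21,000xg for 90 min, was quantified by TMTpro 16plex LC-MS/MS with equalised channel sums.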
As to SAE1 (UniProt M0R286), the log2 fold change was inactive: 0.313.

For the target SAMD4B (UniProt Q5PRF9), the log2 fold change was inactive: -0.027.

In the case of SAYSD1 (UniProt Q9NPB0), the log2 fold change was inactive: 0.116.

For the target SDC3 (UniProt O75056), the log2 fold change was inactive: -0.012.

SEC14L1 isoform 2 (UniProt Q92503): the log2 fold change was inactive: 0.101.

As to SEC24A (UniProt O95486), the log2 fold change was inactive: 0.02.

In the case of S100A6 (UniProt P06703), the log2 fold change is inactive: 0.032.

For the target RTN4 isoform 5 (UniProt Q9NQC3), the log2 fold change was inactive: -0.083.

In the case of RTL10 (UniProt Q7L3V2), the log2 fold change is inactive: 0.017.

With RUFY3 isoform 3 (UniProt Q7L099), the log2 fold change is inactive: -0.004.

Turning to SAP30 (UniProt O75446), the log2 fold change is inactive: -0.006.

As to SDHAF4 (UniProt Q5VUM1), the log2 fold change was inactive: 0.16.

SCAI isoform 2 (UniProt Q8N9R8): the log2 fold change was inactive: 0.013.

Turning to SDHB, A0A087WWT1, the log2 fold change is inactive: -0.025.

Regarding SDAD1 (UniProt Q9NVU7), the log2 fold change was inactive: -0.045.

For the target SEC22A (UniProt Q96IW7), the log2 fold change is inactive: 0.071.

As for SCRIB isoform 3 (UniProt Q14160), the log2 fold change is inactive: -0.061.

For the target S100A10 (UniProt P60903), the log2 fold change was inactive: 0.061.

Regarding SDHB, A0A087WXX8, the log2 fold change is inactive: -0.003.

On to SAP130 isoform 3 (UniProt Q9H0E3), for which the log2 fold change was inactive: -0.159.

Take SDHC (UniProt Q99643): the log2 fold change is inactive: 0.004.

For SEC23A (UniProt Q15436), the log2 fold change was inactive: 0.052.

Compound in a further experiment: CC1=C2C(=CC=C1)N=C(N(C2=O)C3=CC=CC=C3C)CN4C=NC5=C(N=CN=C54)N
The description is as above. The gist of the method:
as §1
Consider SAE1 (UniProt M0R286), for which the log2 fold change was inactive: 0.396.

On to RUBCN (UniProt Q92622), for which the log2 fold change is inactive: 0.106.

Take SDCCAG8 (UniProt Q86SQ7): the log2 fold change was inactive: -0.043.

For SDC3 (UniProt O75056), the log2 fold change was inactive: 0.071.

With S100A14 (UniProt Q9HCY8), the log2 fold change is inactive: -0.148.

As to RRP1B (UniProt Q14684), the log2 fold change was inactive: -0.138.

With SEC14L1 isoform 2 (UniProt Q92503), the log2 fold change is inactive: -0.538.

In the case of RRP1 (UniProt P56182), the log2 fold change was inactive: 0.107.

For RSL24D1 (UniProt Q9UHA3), the log2 fold change is inactive: -0.317.

With SCGB2A2 (UniProt Q13296), the log2 fold change was inactive: -0.247.

As for SEC24A (UniProt O95486), the log2 fold change was inactive: 0.014.

On to RTN4 isoform 5 (UniProt Q9NQC3), for which the log2 fold change is inactive: 0.021.

Consider RTL10 (UniProt Q7L3V2), for which the log2 fold change was inactive: -0.061.

As for RUFY3 isoform 3 (UniProt Q7L099), the log2 fold change is inactive: 0.061.

Turning to SAP30 (UniProt O75446), the log2 fold change was inactive: -0.002.

Regarding RUNX1 isoform 8 (UniProt Q01196), the log2 fold change was inactive: 0.025.

Turning to SCAI isoform 2 (UniProt Q8N9R8), the log2 fold change is inactive: -0.03.

On to S100A16 (UniProt Q96FQ6), for which the log2 fold change is inactive: -0.242.

Regarding SDHB, A0A087WWT1, the log2 fold change is inactive: -0.02.

In the case of SCAMP3 isoform 2 (UniProt O14828), the log2 fold change is inactive: 0.323.

Consider RWDD2B (UniProt P57060), for which the log2 fold change was inactive: 0.165.

Consider SDHB, A0A087WXX8, for which the log2 fold change is inactive: 0.133.

On to SAP130 isoform 3 (UniProt Q9H0E3), for which the log2 fold change is inactive: -0.067.

In the case of RTL8C (UniProt A6ZKI3), the log2 fold change is inactive: 0.111.

For the target SDHC (UniProt Q99643), the log2 fold change was inactive: -0.056.

On to SEC23A (UniProt Q15436), for which the log2 fold change is inactive: 0.078.

Compound in a further experiment: Cc1sc2c(c1C)C(c1ccc(Cl)cc1)=N[C@@H](CC(=O)OC(C)(C)C)c1nnc(C)n1-2
The description is as above. The procedure, abridged: as §1
With SAMD4B (UniProt Q5PRF9), the log2 fold change was inactive: 0.039.

Take SDCBP isoform 2 (UniProt O00560): the log2 fold change was inactive: 0.169.

Consider SDCCAG8 (UniProt Q86SQ7), for which the log2 fold change was inactive: 0.064.

For the target SAV1 (UniProt Q9H4B6), the log2 fold change was inactive: 0.018.

With SDC3 (UniProt O75056), the log2 fold change was inactive: -0.044.

Consider S100A14 (UniProt Q9HCY8), for which the log2 fold change was inactive: -0.405.

In the case of RRP1B (UniProt Q14684), the log2 fold change was inactive: 0.075.

On to SAMD4A (UniProt Q9UPU9), for which the log2 fold change was inactive: 0.313.

As to SEC14L1 isoform 2 (UniProt Q92503), the log2 fold change is inactive: -0.076.

Consider RSL24D1 (UniProt Q9UHA3), for which the log2 fold change is inactive: 0.152.

Turning to SCGB2A2 (UniProt Q13296), the log2 fold change was inactive: -0.336.

Take SDF2 (UniProt Q99470): the log2 fold change was inactive: -0.577.

For the target SEC24A (UniProt O95486), the log2 fold change was inactive: -0.027.

Regarding S100A6 (UniProt P06703), the log2 fold change was inactive: -0.181.

Regarding SCNM1 (UniProt Q9BWG6), the log2 fold change is inactive: 0.071.

With RTN4 isoform 5 (UniProt Q9NQC3), the log2 fold change is inactive: -0.049.

As for RTL10 (UniProt Q7L3V2), the log2 fold change was inactive: -0.069.

On to RUFY3 isoform 3 (UniProt Q7L099), for which the log2 fold change is inactive: 0.016.

SDHAF4 (UniProt Q5VUM1): the log2 fold change is inactive: -0.025.

As for S100A16 (UniProt Q96FQ6), the log2 fold change is inactive: -0.084.

On to SEC22A (UniProt Q96IW7), for which the log2 fold change was inactive: -0.011.

For SCRIB isoform 3 (UniProt Q14160), the log2 fold change is inactive: -0.033.

As to S100A10 (UniProt P60903), the log2 fold change was inactive: -0.127.

For SDHC (UniProt Q99643), the log2 fold change was inactive: -0.018.

Consider SEC23A (UniProt Q15436), for which the log2 fold change is inactive: 0.027.

On to RXRG (UniProt P48443), for which the log2 fold change was inactive: -0.278.

These data come from the supplement of paper PMC10849652.
